Source: PubChem BioAssay AID602196 (INSERM, 2012)

- Test: 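Modifiers of cisplatin sensitivity in A549 cells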
- Cell system: human A549 lung cancer cells
- Reagents: siRNA pair against human genes
- Duration: 48 h transfection before cisplatin; time from cisplatin to read-out not stated
- Treatment: cisplatin at a dose killing half of control-siRNA cells; exact dose and duration not given
- Measured: 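Shift in cisplatin death relative to control siRNA, from -50 (all cells die) to +50 (no cells die); siRNAs harmful on their own scored 0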
- Scale: two-siRNA summed score (-2 to +2): higher = both siRNAs protect from cisplatin killing; -2 means both sensitise; mean protection from cisplatin (shift in death) and protection from cisplatin (shift in death), siRNA C and protection from cisplatin (shift in death), siRNA D: higher = protection from cisplatin killing
- Active means: 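siRNAs harmful alone (LDH or WST-1) get 0; others get +1 for less and -1 for more cisplatin killing; genes are active when the two siRNAs give the same sign, summing to ±2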
- Meaning of the calls: active = both siRNAs shift cisplatin killing the same way; inactive = no consistent shift, or siRNA harmful alone
Shown is one part, drawn at random, of about 23,000 deposited reagents. Over the whole deposit, 455 (2%) were called active. 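Active includes both protection and sensitisation; some change values fall well beyond the stated -50 to +50 range.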 Not given: the amount of reagent.

no.	gene symbol	PubChem SID	two-siRNA summed score (-2 to +2)	mean protection from cisplatin (shift in death) (%)	protection from cisplatin (shift in death), siRNA C (%)	protection from cisplatin (shift in death), siRNA D (%)	activity call
1	MAP3K20	SID131508032	0	0.5	-3.2	4.3	inactive
2	SYNPO	SID131515363	0	9.1	8.8	9.4	inactive
3	RAP2C	SID131501683	-1	-8.1	-27.5	11.2	inactive
4	PRKDC	SID131509606	0	2.3	9.1	-4.5	inactive
5	ADAMTSL1	SID131519677	1	6.9	8	5.9	inactive
6	ADAMTSL1	SID131521988	1	15.7	16.5	15	inactive
7	ACP3	SID131511473	0	4.4	7.7	1.1	inactive
8	GPD1L	SID131509778	0	2.5	0	5	inactive
9	SMTN	SID131511644	0	4.6	8.9	0.2	inactive
10	SPC24	SID131513245	0	6.4	23.7	-11	inactive
11	PLCH2	SID131503647	0	-8.7	-3.7	-13.7	inactive
12	LOC285192	SID131511703	0	4.6	4.4	4.8	inactive
13	FTMT	SID131505475	0	-3.1	0.2	-6.4	inactive
14	CDRT15P3	SID131511479	0	4.4	-0.5	9.3	inactive
15	CCNI	SID131514876	0	8.4	2.7	14.1	inactive
16	EFEMP1	SID131513910	0	7.2	9.9	4.4	inactive
17	CACNG3	SID131500707	-1	-17.4	-9.4	-25.3	inactive
18	RIN3	SID131504169	0	-6.3	-7.7	-4.9	inactive
19	WNT10B	SID131502930	0	-18.1	-35.4	-0.8	inactive
20	PLEKHM2	SID131515014	0	8.6	-9.2	26.3	inactive
21	PIK3CG	SID131519762	1	7.3	-1.9	16.6	inactive
22	LOC401529	SID131510779	0	3.6	13.2	-6	inactive
23	BEST4	SID131519582	1	6.5	-8	20.9	inactive
24	THYN1	SID131522932	2	12.3	13.6	11	active
25	IL15RA	SID131510468	0	3.3	-6.1	12.6	inactive
26	PCDHB8	SID131501750	-1	-7.6	10.1	-25.2	inactive
27	SERPINB5	SID131501632	-1	-8.5	-24.4	7.3	inactive
28	VDAC3	SID131507806	0	0.3	1.6	-1	inactive
29	PHB1	SID131500490	-1	-25	-60.1	10.2	inactive
30	SRY	SID131521148	1	12.4	11.8	12.9	inactive
31	CNN1	SID131523133	2	21.1	18.3	23.8	active
32	HEMK2	SID131505206	0	-3.6	-6.9	-0.2	inactive
33	CATSPERH	SID131511488	0	4.4	3.5	5.4	inactive
34	FSTL1	SID131513426	0	6.6	1.9	11.2	inactive
35	LOC128208	SID131511318	0	4.2	7.3	1.1	inactive
36	ANP32A	SID131508378	0	1	17.3	-15.3	inactive
37	PRR22	SID131519317	1	4.7	12.7	-3.2	inactive
38	TARS3	SID131508803	0	1.5	10.8	-7.8	inactive
39	TMCO1	SID131516837	0	11.8	16.4	7.1	inactive
40	SPIN2A	SID131503942	0	-7.1	-13.8	-0.3	inactive
41	PCCA	SID131500864	-1	-15	-38.3	8.3	inactive
42	TFAP2D	SID131520443	1	9.9	19.1	0.8	inactive
43	LOC442313	SID131505697	0	-2.7	-5.6	0.1	inactive
44	IQCF2	SID131501973	-1	-6.2	-1.1	-11.2	inactive
45	GTF2B	SID131501184	-1	-11.7	3.8	-27.1	inactive
46	ARF6	SID131507349	0	-0.2	0.7	-1.1	inactive
47	TMEM88	SID131514224	0	7.5	12.9	2.2	inactive
48	LINC00692	SID131520094	1	8.7	-0.5	17.9	inactive
49	TSTD2	SID131520452	1	10	33.2	-13.2	inactive
50	SERPING1	SID131519612	1	6.6	16.3	-3.1	inactive
51	CCSER2	SID131513759	0	7	-1	15	inactive
52	THAP10	SID131507396	0	-0.2	-3	2.6	inactive
53	LOC440956	SID131516886	0	11.9	4	19.8	inactive
54	FRZB	SID131508539	0	1.2	15.8	-13.5	inactive
55	BHMT2	SID131504528	0	-5.2	-4.3	-6	inactive
56	HUS1	SID131501932	-1	-6.5	0.9	-13.9	inactive
57	LOC388853	SID131507561	0	0	-5.2	5.2	inactive

Entries above with an active call:
gene symbol	PubChem SID	two-siRNA summed score (-2 to +2)	mean protection from cisplatin (shift in death) (%)	protection from cisplatin (shift in death), siRNA C (%)	protection from cisplatin (shift in death), siRNA D (%)	activity call
THYN1	SID131522932	2	12.3	13.6	11	active
CNN1	SID131523133	2	21.1	18.3	23.8	active
